# According to PubChem BioAssay:
# Protein sequences, listed by entry. Tags and fused reporters are not part of them.
# UniProt P08183, whole entry, looked up: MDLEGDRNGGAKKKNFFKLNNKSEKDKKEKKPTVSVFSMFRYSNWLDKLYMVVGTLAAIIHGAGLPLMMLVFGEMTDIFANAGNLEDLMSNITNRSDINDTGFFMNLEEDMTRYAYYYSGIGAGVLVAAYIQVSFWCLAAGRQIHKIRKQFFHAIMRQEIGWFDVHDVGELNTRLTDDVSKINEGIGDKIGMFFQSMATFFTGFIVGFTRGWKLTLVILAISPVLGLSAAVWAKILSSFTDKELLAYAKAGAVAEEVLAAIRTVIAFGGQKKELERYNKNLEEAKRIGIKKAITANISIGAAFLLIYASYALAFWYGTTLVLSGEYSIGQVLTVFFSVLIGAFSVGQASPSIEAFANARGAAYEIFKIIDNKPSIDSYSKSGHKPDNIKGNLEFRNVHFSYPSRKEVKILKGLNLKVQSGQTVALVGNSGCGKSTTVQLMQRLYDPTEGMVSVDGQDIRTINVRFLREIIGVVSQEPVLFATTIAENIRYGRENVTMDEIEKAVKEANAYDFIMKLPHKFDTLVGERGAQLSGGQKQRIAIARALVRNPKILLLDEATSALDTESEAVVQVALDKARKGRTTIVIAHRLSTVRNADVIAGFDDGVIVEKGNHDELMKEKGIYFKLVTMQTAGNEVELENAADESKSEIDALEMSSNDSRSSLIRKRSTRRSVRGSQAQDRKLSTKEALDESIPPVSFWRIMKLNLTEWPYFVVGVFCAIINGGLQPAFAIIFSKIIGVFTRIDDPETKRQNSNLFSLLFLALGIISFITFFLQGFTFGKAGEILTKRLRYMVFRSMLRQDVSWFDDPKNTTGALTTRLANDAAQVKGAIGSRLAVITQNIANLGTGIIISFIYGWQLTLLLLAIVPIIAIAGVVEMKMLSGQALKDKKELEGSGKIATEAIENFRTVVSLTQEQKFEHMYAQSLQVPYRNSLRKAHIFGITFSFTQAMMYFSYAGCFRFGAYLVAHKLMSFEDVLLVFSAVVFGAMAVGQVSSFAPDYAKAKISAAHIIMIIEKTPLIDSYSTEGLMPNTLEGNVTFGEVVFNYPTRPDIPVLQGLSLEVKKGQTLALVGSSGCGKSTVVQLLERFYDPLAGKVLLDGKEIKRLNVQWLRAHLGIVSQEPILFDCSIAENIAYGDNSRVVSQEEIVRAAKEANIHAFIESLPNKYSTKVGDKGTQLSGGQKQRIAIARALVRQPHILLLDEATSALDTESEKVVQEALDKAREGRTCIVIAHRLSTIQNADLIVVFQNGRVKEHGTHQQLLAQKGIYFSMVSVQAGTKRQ
# The shares of active, inactive and inconclusive entries below differ from those in the screen. For some of these results: Potencies beside an inconclusive call are fits to weak or partial responses and may not hold up. Calls of active or inactive are those of the source. Unless noted, the limit is not given here; nearly all actives have AC50 up to about 26 µM.
# How the values were obtained:
# [1] = growth inhibition of DIPG glioma cells, dose response, cell-based, SU-DIPG-XVII, MIPE5.0, CellTiter-Glo, qHTS (AID 1347060); details: SU-DIPG-XVII viability, CellTiter-Glo ATP luminescence;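 as to AC50: cells exposed to compound for 48 hours before viability readout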
# [2] = growth inhibition of DIPG glioma cells, dose response, cell-based, SU-DIPG-XIII, MIPE4.0, CellTiter-Glo, qHTS (AID 1347061; cut-off not given, nearly all actives have AC50 up to about 37 µM;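 also: cells exposed to compound for 48 hours before readout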); details: SU-DIPG-XIII viability, CellTiter-Glo ATP luminescence
# [3] = growth inhibition of DIPG glioma cells, dose response, cell-based, SU-DIPG-IV, MIPE4.0, CellTiter-Glo, qHTS (AID 1347063; cut-off not given, nearly all actives have AC50 up to about 30 µM;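 also: compound exposure lasted 48 hours before the viability readout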); details: SU-DIPG-IV viability, CellTiter-Glo ATP luminescence
# [4] = growth inhibition of DIPG glioma cells, dose response, cell-based, SU-DIPG-XIII, MIPE5.0, CellTiter-Glo, qHTS (AID 1347064; cut-off not given, nearly all actives have AC50 up to about 23 µM;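 as to AC50: cells exposed to compound for 48 hours before the viability read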); details: SU-DIPG-XIII viability, CellTiter-Glo ATP luminescence
# [5] = viability loss in pontine glioma line – cell-based, SU-DIPG-XXV, MIPE5.0, CellTiter-Glo, qHTS, dose response (AID 1347065); details: CellTiter-Glo ATP luminescence;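 also: cells exposed to compound for 48 hours before ATP readout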
# [6] = SU-DIPG-XXV glioma cell viability, MIPE5.0 library, qHTS (AID 1347068; cut-off not given, nearly all actives have IC50 up to about 30 µM;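 as to IC50: cells exposed to compound for 48 hours before viability readout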)
# [7] = JHH-DIPG-1 glioma cell viability, MIPE5.0 library, CellTiter-Glo luminescence, qHTS (AID 1347067); details: JHH-DIPG-1 glioma viability, CellTiter-Glo ATP luminescence;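 also: cells exposed to compound for 48 hours before readout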
# [8] = SU-DIPG-VI glioma cell viability, MIPE4.0 library, CellTiter-Glo luminescence, qHTS (AID 1347066; cut-off not given, nearly all actives have AC50 up to about 30 µM;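 also: cells exposed to compound for 48 hours before readout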); details: CellTiter-Glo ATP luminescence
# [9] = target: ATP-dependent translocase ABCB1 (Homo sapiens) (UniProt P08183); assay: MDR1 (ABCB1) efflux transporter inhibition, cell-based (AID 377; in the data active = fluorescence slope change above about 50%; inconclusive = mostly about 31% to 49%); details: MDR1-expressing cells, fluorescent substrate accumulation slope; stronger effect = higher value; concentration not given here
# [10] = inhibitors of polyQ aggregate elongation, biochemical, solid-phase synthetic aggregates, QA3 (AID 1585; call rule not given here); details: biotin-polyQ incorporation, at 100 µM, stronger effect = higher value
# [11] = polyglutamine aggregation reduction, turbidity readout, qthio, single concentration 25 µM screen (AID 1588; call rule not given here); details: at 25 µM, stronger effect = lower value
# [12] = protection of motor neurons from glutamate death, cell-based, TUNEL DNA degradation staining, MNGlu (AID 1594; call rule not given here); details: glutamate-induced death, at 1 µM, stronger effect = higher value
# [13] = enhancers of SMN2 over SMN1 splicing, cell-based, SMN2/SMN1 luciferase reporters (AID 1598; call rule not given here); details: SMN2 vs SMN1 luciferase splicing reporter cells; at 10 µM; stronger effect = higher value
structure (smiles),measurement,setting,value
COc1cc(NCc2ccc3nc(N)nc(N)c3c2C)cc(OC)c1OC,AC50,[1],inconclusive: 26.3 µM [cytotoxic]
same,AC50,[2],inconclusive: 18.7 µM [cytotoxic]
same,AC50,[3],inconclusive: 18.7 µM [cytotoxic]
same,AC50,[4],active: 7.42 µM
same,AC50,[5],active: 2.95 µM
same,IC50,[6],inconclusive: 0.468 µM [cytotoxic]
O=C(O)[C@H](CC(=O)N1C[C@H]2CCCC[C@H]2C1)Cc1ccccc1,outcome,[1],inactive
same,AC50,[2],inconclusive: 0.00935 µM
same,outcome,[3],inactive
same,outcome,[4],inactive
same,outcome,[5],inactive
same,outcome,[7],inactive
O=C(O)c1ccc(Nc2ncc3c(n2)-c2ccc(Cl)cc2C(c2c(F)cccc2F)=NC3)cc1,AC50,[1],active: 4.17 µM
same,outcome,[2],inactive
same,outcome,[3],inactive
same,AC50,[4],inconclusive: 33.2 µM [cytotoxic]
same,outcome,[8],inactive
same,AC50,[7],active: 16.6 µM
same,IC50,[6],inconclusive: 0.468 µM [cytotoxic]
OCCN1C[C@H](O)[C@@H](O)[C@H](O)[C@H]1CO,outcome,[1],inactive
same,outcome,[2],inactive
same,outcome,[3],inactive
same,AC50,[4],inconclusive: 0.00105 µM
same,outcome,[5],inactive
same,outcome,[6],inactive
C#Cc1cccc(Nc2ncnc3cc(OCCOC)c(OCCO)cc23)c1,AC50,[1],active: 11.8 µM
same,AC50,[2],inconclusive: 7.43 µM [cytotoxic]
same,AC50,[3],active: 2.96 µM
same,AC50,[4],inconclusive: 20.9 µM [cytotoxic]
same,AC50,[5],active: 7.42 µM
same,IC50,[6],inconclusive: 9.34 µM [cytotoxic]
Cc1oncc1C(=O)Nc1ccc(C(F)(F)F)cc1,fluorescence slope change,[9],inactive: 12.9%
same,inhibition,[10],inconclusive: 8.97%
same,aggregation (% of control),[11],inconclusive: 112%
same,protection,[12],inconclusive: 1%
same,SMN2/SMN1 luciferase ratio,[13],inconclusive: 0.99
same,AC50,[1],inconclusive: 0.00118 µM
same,AC50,[2],inconclusive: 10.5 µM [cytotoxic]
same,AC50,[3],inconclusive: 20.9 µM [cytotoxic]
same,outcome,[4],inactive
same,AC50,[5],inconclusive: 20.9 µM [cytotoxic]
same,AC50,[7],inconclusive: 16.6 µM [cytotoxic]
same,outcome,[6],inactive
CC(S)C(=O)NCC(=O)O (stereo unspecified),AC50,[1],inconclusive: 11.8 µM [cytotoxic]
same,AC50,[2],inconclusive: 26.4 µM [cytotoxic]
same,AC50,[3],inconclusive: 0.0296 µM
same,AC50,[4],inconclusive: 1.32 µM [cytotoxic]
same,AC50,[5],inconclusive: 0.00105 µM [cytotoxic]
same,AC50,[7],inconclusive: 5.25 µM [cytotoxic]
same,outcome,[6],inactive
CO[C@H]1/C=C/O[C@@]2(C)Oc3c(C)c(O)c4c(O)c(c(/C=N\N5CCN(C6CCCC6)CC5)c(O)c4c3C2=O)NC(=O)/C(C)=C\C=C\[C@H](C)[C@H](O)[C@@H](C)[C@@H](O)[C@@H](C)[C@H](OC(C)=O)[C@@H]1C,AC50,[1],inconclusive: 37.2 µM [cytotoxic]
same,AC50,[2],inconclusive: 0.469 µM [cytotoxic]
same,AC50,[3],active: 0.0935 µM
same,AC50,[4],active: 23.5 µM
same,AC50,[8],inconclusive: 18.7 µM [cytotoxic]
same,AC50,[7],inconclusive: 23.5 µM [cytotoxic]
same,IC50,[6],active: 20.9 µM
CC1(C)CCC(c2ccc(Cl)cc2)=C(CN2CCN(c3ccc(C(=O)NS(=O)(=O)c4ccc(N[C@H](CCN5CCOCC5)CSc5ccccc5)c(S(=O)(=O)C(F)(F)F)c4)cc3)CC2)C1,AC50,[1],active: 8.33 µM
same,AC50,[2],inconclusive: 11.8 µM [cytotoxic]
same,AC50,[3],active: 2.09 µM
same,AC50,[4],inconclusive: 5.9 µM [cytotoxic]
same,AC50,[5],active: 0.148 µM
same,IC50,[6],active: 3.32 µM
O=C(/C=C/c1ccc(/C=C/C(=O)Nc2ccc(C3=NCCN3)cc2)cc1)Nc1ccc(C2=NCCN2)cc1,AC50,[1],active: 2.35 µM
same,outcome,[2],inactive
same,outcome,[3],inactive
same,outcome,[4],inactive
same,outcome,[5],inactive
same,IC50,[6],inconclusive: 2.63 µM
COc1cc2ncnc(Nc3ccc(F)c(Cl)c3)c2cc1OCCCN1CCOCC1,AC50,[1],inconclusive: 4.68 µM [cytotoxic]
same,AC50,[2],active: 38.2 µM
same,AC50,[3],active: 10.8 µM
same,outcome,[4],inactive
same,outcome,[5],inactive
same,outcome,[6],inactive
COc1ccc(CC2SC(=O)NC2=O)cc1C(=O)NCc1ccc(C(F)(F)F)cc1 (stereo unspecified),AC50,[1],inconclusive: 0.417 µM [cytotoxic]
same,outcome,[2],inactive
same,outcome,[3],inactive
same,AC50,[4],inconclusive: 20.9 µM [cytotoxic]
same,outcome,[8],inactive
CCCNCC(O)COc1ccccc1C(=O)CCc1ccccc1 (stereo unspecified),fluorescence slope change,[9],active: 74.2%
same,inhibition,[10],inconclusive: 16.7%
same,aggregation (% of control),[11],inconclusive: 110%
same,SMN2/SMN1 luciferase ratio,[13],inconclusive: 0.97
same,outcome,[1],inactive
same,AC50,[2],inconclusive: 29.6 µM [cytotoxic]
same,AC50,[3],inconclusive: 37.2 µM [cytotoxic]
same,outcome,[4],inactive
same,AC50,[5],inconclusive: 1.05 µM
same,AC50,[7],inconclusive: 26.3 µM [cytotoxic]
same,outcome,[6],inactive

# Three entries drawn at random from the list so far:
structure (smiles),measurement,setting,value
COc1cc(NCc2ccc3nc(N)nc(N)c3c2C)cc(OC)c1OC,AC50,[1],inconclusive: 26.3 µM [cytotoxic]
CC1(C)CCC(c2ccc(Cl)cc2)=C(CN2CCN(c3ccc(C(=O)NS(=O)(=O)c4ccc(N[C@H](CCN5CCOCC5)CSc5ccccc5)c(S(=O)(=O)C(F)(F)F)c4)cc3)CC2)C1,AC50,[5],active: 0.148 µM
CCCNCC(O)COc1ccccc1C(=O)CCc1ccccc1 (stereo unspecified),AC50,[5],inconclusive: 1.05 µM
